Measurements reported in PubChem BioAssay AID1224831 (NIAID, 2016)
Aim: 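Retesting screen hits on the TLR4-driven TNF response with six separate siRNAs each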 (follow-up of hits). System: human THP-1 B5 monocytic leukaemia cells carrying a TNF promoter luciferase reporter, made macrophage-like with PMA. Reagent: single siRNA against human genes, 50 nM. Duration: about 68 h of knock-down, then 4 h LPS. Challenge: LPS (Salmonella minnesota, TLR-grade) at 10 ng/ml for 4 h; PMA 5 ng/ml present during knock-down. Measurement: 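Firefly to renilla luciferase ratio of a TNF promoter reporter after 4 h LPS, scaled to plate median, turned into robust z-score, averaged over replicates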. Scale: TNF reporter z-score: higher = stronger LPS-induced TNF reporter signal; z-score, median over gene's siRNAs: higher = stronger TNF reporter signal across the gene's siRNAs. Rule for the call: 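Active when the replicate mean z-score is about -1 or lower, or about 1.5 or higher; lowered and raised TNF reporter signal both count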. Meaning of the calls: active = changed TNF reporter (either direction); inactive = little change.
In all, the deposit lists about 3,500 reagents; below is a random part of them. 731 of them (21%) count as active. 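Active means either lowered or raised reporter signal; the gene-median score did not drive the per-siRNA calls.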 Reagents against one gene are numbered here. No sequences are given here.

CARD19 #1 gave TNF reporter z-score, replicate mean 2.56; z-score, median over gene's siRNAs 1; active.
Against CARD19 #2, the values are TNF reporter z-score, replicate mean 0.73; z-score, median over gene's siRNAs 1; inactive.
With knock-down of CARD19 #3, the screen gave TNF reporter z-score, replicate mean 1.28; z-score, median over gene's siRNAs 1; inactive.
After knock-down of CARD19 #4 the results were TNF reporter z-score, replicate mean 5.58; z-score, median over gene's siRNAs 1; active.
Silencing of CARD19 #5 resulted in: TNF reporter z-score, replicate mean 0.58; z-score, median over gene's siRNAs 1; inactive.
CARD19 #6 showed TNF reporter z-score, replicate mean -0.6; z-score, median over gene's siRNAs 1; inactive.
UTP25 #1 scored TNF reporter z-score, replicate mean -2.04; z-score, median over gene's siRNAs -0.33; active.
For UTP25 #2 the deposit lists TNF reporter z-score, replicate mean -1.48; z-score, median over gene's siRNAs -0.33; active.
Against UTP25 #3, the values are TNF reporter z-score, replicate mean -0.42; z-score, median over gene's siRNAs -0.33; inactive.
For UTP25 #4, the values are TNF reporter z-score, replicate mean -0.24; z-score, median over gene's siRNAs -0.33; inactive.
Silencing of UTP25 #5 gave: TNF reporter z-score, replicate mean 1.81; z-score, median over gene's siRNAs -0.33; active.
After knock-down of UTP25 #6, the screen gave TNF reporter z-score, replicate mean 0.33; z-score, median over gene's siRNAs -0.33; inactive.
Silencing of LKAAEAR1 #1 gave: TNF reporter z-score, replicate mean 0.37; z-score, median over gene's siRNAs 0.06; inactive.
LKAAEAR1 #2 scored TNF reporter z-score, replicate mean -0.23; z-score, median over gene's siRNAs 0.06; inactive.
Knock-down of LKAAEAR1 #3 came out at: TNF reporter z-score, replicate mean 1.13; z-score, median over gene's siRNAs 0.06; inactive.
With knock-down of LKAAEAR1 #4, the screen gave TNF reporter z-score, replicate mean -0.75; z-score, median over gene's siRNAs 0.06; inactive.
Depletion of LKAAEAR1 #5 gave: TNF reporter z-score, replicate mean -0.33; z-score, median over gene's siRNAs 0.06; inactive.
After knock-down of LKAAEAR1 #6, the record shows TNF reporter z-score, replicate mean 0.35; z-score, median over gene's siRNAs 0.06; inactive.
Depletion of KLK6 #1 gave: TNF reporter z-score, replicate mean 0.6; z-score, median over gene's siRNAs 0.365; inactive.
For KLK6 #2, the values are TNF reporter z-score, replicate mean -0.33; z-score, median over gene's siRNAs 0.365; inactive.
For KLK6 #3, the values are TNF reporter z-score, replicate mean -0.03; z-score, median over gene's siRNAs 0.365; inactive.
After knock-down of KLK6 #4, the screen gave TNF reporter z-score, replicate mean 0.45; z-score, median over gene's siRNAs 0.365; inactive.
KLK6 #5 scored TNF reporter z-score, replicate mean 0.48; z-score, median over gene's siRNAs 0.365; inactive.
After knock-down of KLK6 #6, the screen gave TNF reporter z-score, replicate mean 0.28; z-score, median over gene's siRNAs 0.365; inactive.
With knock-down of AKAP6 #1 the results were TNF reporter z-score, replicate mean 0.3; z-score, median over gene's siRNAs 0.08; inactive.
AKAP6 #2 showed TNF reporter z-score, replicate mean 1.08; z-score, median over gene's siRNAs 0.08; inactive.
AKAP6 #3 showed TNF reporter z-score, replicate mean -0.14; z-score, median over gene's siRNAs 0.08; inactive.
Silencing of AKAP6 #4 came out at: TNF reporter z-score, replicate mean -0.14; z-score, median over gene's siRNAs 0.08; inactive.
AKAP6 #5 showed TNF reporter z-score, replicate mean -0.27; z-score, median over gene's siRNAs 0.08; inactive.
AKAP6 #6 scored TNF reporter z-score, replicate mean 0.87; z-score, median over gene's siRNAs 0.08; inactive.
